Results are given in words; binding and its absence hold for the method and conditions named. Binding seen in cells or lysates may run through a third protein. Some binding calls cover weakened binding; strength is not graded here. Sequences can lack the tags named with a protein.
Target: T1, Myc- and HA-tagged ABCG2 (human), Q9UNQ0
T1 chain: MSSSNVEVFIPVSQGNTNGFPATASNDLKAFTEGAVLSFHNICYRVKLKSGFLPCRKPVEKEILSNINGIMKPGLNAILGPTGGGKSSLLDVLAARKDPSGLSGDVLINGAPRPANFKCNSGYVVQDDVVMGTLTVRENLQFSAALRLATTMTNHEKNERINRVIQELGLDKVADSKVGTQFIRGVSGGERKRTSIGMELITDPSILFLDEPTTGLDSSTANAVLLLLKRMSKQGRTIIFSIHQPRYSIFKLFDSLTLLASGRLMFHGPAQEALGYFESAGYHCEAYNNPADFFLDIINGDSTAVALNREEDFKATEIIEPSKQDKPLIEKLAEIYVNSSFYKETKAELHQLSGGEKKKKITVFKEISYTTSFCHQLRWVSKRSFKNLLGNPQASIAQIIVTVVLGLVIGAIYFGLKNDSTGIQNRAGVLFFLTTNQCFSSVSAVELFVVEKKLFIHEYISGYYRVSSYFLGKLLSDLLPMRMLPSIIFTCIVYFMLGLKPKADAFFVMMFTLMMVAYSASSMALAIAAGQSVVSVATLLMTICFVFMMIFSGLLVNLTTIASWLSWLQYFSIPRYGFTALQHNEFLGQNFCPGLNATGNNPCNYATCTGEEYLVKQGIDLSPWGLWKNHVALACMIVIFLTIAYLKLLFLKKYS
Assay: co-IP; HEK293 cells co-transfected with Myc- and HA-tagged ABCG2, exposed to 3.3 µM PZ-39 for 6 hrs; cell lysates immunoprecipitated with anti-Myc or anti-HA monoclonal antibody, western blot probed with anti-HA and anti-Myc antibody
Conditions: remark: other sources report otherwise

binding: binds
B1: Myc- and HA-tagged ABCG2, Q9UNQ0 1-655 (protein)
chain: T1 chain
